The values below come from publication doi:10.1101/2024.04.17.589660.

Results are given in words; binding and its absence hold for the method and conditions named. Binding calls can cover weak binding; strength is not graded here. Tags and fused reporters may be left off the sequences shown.

The experiment addresses BatR (PA3049), bacterial two-hybrid fusion (P. aeruginosa PAO1). Description: two-hybrid.

B1: Glycerol phosphate kinase (GlpK, PA3582), bacterial two-hybrid fusion (enzyme, UniProt Q51390 1-505)
chain: MTDKHNKKYVVALDQGTTSSRAIVFDRDANVVSQAQREFAQFYPQAGWVEHDPMEIWATQSSTLVEALAQASIEHDQVAAIGITNQRETTVVWDRHSGRPIHNAIVWQCRRSAAICAQLKRDGLEDYIRETTGLVTDPYFSGTKLKWILDNVEGARERARNGDLLFGTIDTWLIWKLTEGKVHVTDYTNASRTMLFNIHSRDWDARMLEVLDIPRSMLPEVRNSSEVYGNARIGGVGGGELPIAGIAGDQQAALFGQMCVEPGQAKNTYGTGCFLLMHTGDKAVKSTHGLLTTIACGPRGEVGYALEGAVFNGGSTVQWLRDELKVINDSFDSEYFATKVKDSNGVYLVPAFTGLGAPYWDPYARGAVFGLTRGVKADHLIRATLESIAYQTRDVLDAMQRDAGERLRALRVDGGAVANNFLMQFQADILGTRVERPVMRETTALGAAYLAGLACGFWSSLDELKSKAVIERVFEPECDEPRREKLYAGWKKAVERTRGWDDGEL
For B1, the binding result was “binds”.
